# These are yes or no findings as the source states them, for the method shown. Binding seen in cells or lysates may run through a third protein.
# The chains behind the UniProt entries cited, without tags or fusion partners. Where a name states a change or a piece, a line headed by the entry shows the natural chain unless it says otherwise.
# UniProt Q8N653: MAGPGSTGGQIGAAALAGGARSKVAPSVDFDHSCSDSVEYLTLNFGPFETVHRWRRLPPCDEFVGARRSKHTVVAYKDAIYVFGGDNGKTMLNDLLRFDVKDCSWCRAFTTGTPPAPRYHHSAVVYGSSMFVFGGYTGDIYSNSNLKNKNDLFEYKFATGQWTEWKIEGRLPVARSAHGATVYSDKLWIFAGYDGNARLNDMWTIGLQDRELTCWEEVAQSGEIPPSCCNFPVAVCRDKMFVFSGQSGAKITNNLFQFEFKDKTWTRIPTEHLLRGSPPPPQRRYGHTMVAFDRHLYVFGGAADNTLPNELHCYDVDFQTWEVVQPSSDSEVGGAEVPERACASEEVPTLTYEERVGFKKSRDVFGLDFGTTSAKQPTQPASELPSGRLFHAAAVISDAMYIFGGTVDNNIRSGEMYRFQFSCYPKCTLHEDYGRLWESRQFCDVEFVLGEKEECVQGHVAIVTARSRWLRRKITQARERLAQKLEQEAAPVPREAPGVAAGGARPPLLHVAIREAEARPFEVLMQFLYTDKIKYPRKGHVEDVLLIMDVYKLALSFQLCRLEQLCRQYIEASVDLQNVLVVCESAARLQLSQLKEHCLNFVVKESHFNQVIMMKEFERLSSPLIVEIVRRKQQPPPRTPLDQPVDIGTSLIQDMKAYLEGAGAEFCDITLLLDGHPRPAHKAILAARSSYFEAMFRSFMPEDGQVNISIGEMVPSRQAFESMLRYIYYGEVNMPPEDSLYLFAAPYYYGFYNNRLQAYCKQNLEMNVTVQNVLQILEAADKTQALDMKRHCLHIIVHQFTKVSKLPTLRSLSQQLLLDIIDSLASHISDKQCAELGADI
# UniProt Q92963: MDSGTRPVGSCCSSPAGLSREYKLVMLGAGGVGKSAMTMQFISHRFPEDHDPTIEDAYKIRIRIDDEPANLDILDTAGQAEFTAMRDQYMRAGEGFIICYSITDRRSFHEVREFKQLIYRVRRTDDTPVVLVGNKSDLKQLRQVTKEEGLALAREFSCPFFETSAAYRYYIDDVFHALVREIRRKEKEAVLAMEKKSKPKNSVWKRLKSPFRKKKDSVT
# Molecular target: FLAG-LZTR1 AD mutant at R283, in vitro translated (human) (UniProt Q8N653)
# Assay: co-IP; in vitro translated FLAG-LZTR1 WT or mutants incubated with HEK293-KO (LZTR1-KO) whole-cell lysate and FLAG-M2 magnetic beads for 12 hours; immunoblot for endogenous RAS subfamily proteins
substance,measurement,value
"RIT1 (Ras-like without CAAX 1), endogenous (from UniProt Q92963 1-219)",binding,no binding

# — publication PMC11601938
